This is an account of results in PubChem BioAssay AID493027 (The Scripps Research Institute Molecular Screening Center, 2011).

The chains behind the UniProt entries cited, without tags or fusion partners. Where a name states a change or a piece, a line headed by the entry shows the natural chain unless it says otherwise.
UniProt O60240: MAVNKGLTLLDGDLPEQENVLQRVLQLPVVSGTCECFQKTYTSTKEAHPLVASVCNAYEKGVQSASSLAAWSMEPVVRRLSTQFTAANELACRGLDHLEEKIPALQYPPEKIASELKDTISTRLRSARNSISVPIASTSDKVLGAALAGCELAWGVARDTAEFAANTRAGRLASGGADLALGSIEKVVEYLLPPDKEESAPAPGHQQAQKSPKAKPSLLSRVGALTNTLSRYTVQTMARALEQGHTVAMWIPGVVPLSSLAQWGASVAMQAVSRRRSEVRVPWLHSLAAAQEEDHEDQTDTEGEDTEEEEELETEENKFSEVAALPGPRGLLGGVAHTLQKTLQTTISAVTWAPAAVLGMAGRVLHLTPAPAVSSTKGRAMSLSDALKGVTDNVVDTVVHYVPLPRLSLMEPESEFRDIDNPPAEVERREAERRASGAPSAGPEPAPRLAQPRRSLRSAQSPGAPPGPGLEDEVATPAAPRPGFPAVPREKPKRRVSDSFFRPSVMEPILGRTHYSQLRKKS
UniProt Q8WTS1: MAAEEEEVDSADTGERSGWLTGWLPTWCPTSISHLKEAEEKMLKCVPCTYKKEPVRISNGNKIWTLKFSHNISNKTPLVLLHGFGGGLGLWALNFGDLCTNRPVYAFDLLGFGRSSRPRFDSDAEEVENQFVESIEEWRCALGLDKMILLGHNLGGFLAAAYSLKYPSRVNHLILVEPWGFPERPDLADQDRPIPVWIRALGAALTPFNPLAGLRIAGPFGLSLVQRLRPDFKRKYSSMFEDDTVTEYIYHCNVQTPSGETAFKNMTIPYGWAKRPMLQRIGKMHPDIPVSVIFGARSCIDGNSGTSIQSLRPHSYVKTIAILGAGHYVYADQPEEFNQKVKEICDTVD

Several values for one entry are separate records, joined by “and”; a condition that tells them apart may be missing. Identical values can stand only once. The whole screen tested about 2,000 compounds, of which about 45 (2%) were called active.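 Rule for the calls: active = inhibition above the screen-wide mean inhibition plus 3 SD (cut at about 44% in these data); inactive = the rest.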 The list shows a part of the results. Where a SMILES comes first, the peptide text is derived from it. The star is where a group is joined. Boc = CC(C)(C)OC(=O)*; OBn = c1ccc(CO*)cc1

By inhibition is commonly meant the relative decrease from the control value, in per cent.

The experiment addresses Perilipin-1 (Homo sapiens) + 1-acylglycerol-3-phosphate O-acyltransferase ABHD5 (Homo sapiens) (UniProt O60240+Q8WTS1). The experiment can be described thus: ABHD5-PLIN1 interaction inhibitors, pilot screen, cell lysate, split luciferase complementation, luminescence, NIH validation set (AID 493027).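 For inhibition: 0% = DMSO wells with the 100% control not disclosed.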 Conditions: split G. princeps luciferase complementation, 4 h; at 7.9 µM, hits give high values.
As to `O=C(NC(CO)Cc1ccc([N+](=O)[O-])cc1)C(Cl)Cl` (centres undefined), the inhibition was inactive: 3.77%.

`Cc1ccc2occ(C(=O)c3ccco3)c(=O)c2c1`: the inhibition is inactive: -4.19%.

Consider `COc1ccc(C(=O)/C=C/c2ccc(OC(=O)c3cc(OC)c(OC)c(OC)c3)cc2)cc1`, for which the inhibition is inactive: 26.9%. Turning to `CC(=O)NC(Cc1ccccc1)C(=O)OCC(=O)c1ccccc1` (centres undefined), the inhibition was inactive: -8.49%. Consider `COc1cccc(C2CC(=O)C3=C(C2)Nc2ccccc2N(C(=O)CCC(=O)O)C3c2ccc(F)cc2)c1` (centres undefined), for which the inhibition was inactive: -2.89%. Take `COc1ccc2c(c1OC)C(=O)NC(C)=C(C(=O)OC(C)(C)C)C2O` (centres undefined): the inhibition is inactive: 8.07%.

Take `O=C1NC2(Nc3ccccc31)C(=O)Nc1ccc(Br)cc12` (centres undefined): the inhibition is inactive: 0.88%. Regarding `COc1ccc(CNC(=O)c2c(O)c3cccc4c3n(c2=O)CCC4)cc1`, the inhibition is inactive: 5.27%.

For `Cc1nc(C(=O)Nc2ccccc2Cl)cc2c1[nH]c1ccccc12`, the inhibition is inactive: -0.62%. Regarding `CCCCC[C@H](O)/C=C/[C@@H]1[C@@H](C/C=C\CCCC(=O)O)[C@@H](O)C[C@H]1O`, the inhibition is inactive: -10.3%. Consider `CN(CCO)CC(O)Cn1cnc2c1c(=O)n(C)c(=O)n2C` (centres undefined) (tested in a mixture with another compound), for which the inhibition is inactive: -12.9%.

Turning to `CC(C)(C)N(Cc1ccccc1)C(=O)c1ccc(Br)o1`, the inhibition was inactive: -5.96%. `CC(COc1ccccc1)N(CCCl)Cc1ccccc1` (centres undefined): the inhibition is inactive: -6.13%.

For the compound `COc1ccc(CN(CCN(C)C)c2ccccn2)cc1`, the inhibition is inactive: -7.19%. On to `CCOC(=O)C(Cc1cc(C(C)=O)ccc1OC(C)C)C(=O)OCC`, for which the inhibition was inactive: 5.74%. Turning to `CCCNC(C)C(=O)Nc1ccccc1C` (centres undefined), the inhibition is inactive: -5.83%. As to `NC(=O)N1c2ccccc2C=Cc2ccccc21`, the inhibition is inactive: -5.36%. Next, `COc1cc(C2NCCc3c2[nH]c2ccccc32)ccc1OC(C)C` (centres undefined): inactive: -0.02%. As to `COc1ccc2oc(-c3ccco3)cc(=O)c2c1`, the inhibition was inactive: 1.51%. Next, `CCOc1cc2oc(=O)c3c(c2cc1Cl)CCC3`: inactive: -7%. Consider `CCNC(=O)C12CCC(C)(C(=O)O1)C2(C)C` (centres undefined), for which the inhibition was inactive: -2.06%. Consider `COc1cc2c(cc1OC)C(c1cc3ccccc3oc1=O)=NC(C)(C)C2`, for which the inhibition is inactive: 7.43%. Next, `CN(C)CCN(Cc1cccs1)c1ccccn1`: inactive: -14.6%; `NC(=O)[C@@H]1[C@@H]2C(=O)N(c3ccc(F)cc3)C(=O)[C@@H]2[C@H]2C=Cc3ccccc3N21`: inactive: 22.7%; `COc1ccc2[nH]c3c(c2c1)CCNC3C1CC=C(C)CC1` (centres undefined): inactive: -5.28%. In the case of `CCOC(=O)C1(CCCc2ccccc2)CCN(C2CCN(C(C)=O)CC2)CC1`, the inhibition was inactive: 3.04%. Next, `Cc1cc(C(=O)Nc2ccccc2C(=O)N2CCCCC2)ccc1[N+](=O)[O-]`: inactive: -3.48%; `CN(Cc1ccccc1)CC(O)COc1ccc(CNCc2cccnc2)cc1` (centres undefined): inactive: -9.52%. As to `COc1ccc(N2C(=O)C3CCCN3C2=O)cc1` (centres undefined), the inhibition is inactive: -1.6%. Take `COc1cc(=O)n(C)c2ccccc12`: the inhibition was inactive: -0.74%. As for `O=Cc1ccccc1Oc1ccccc1`, the inhibition was inactive: -8.29%. The result for `COc1cc(-c2cccs2)cc(=O)c2c(C)oc(C)c12` reads inactive: 32%. With `CCN(CC)c1ccc([C@H]2[C@@H]3CCCC[C@]3(O)CCN2CC(=O)NCc2ccco2)cc1`, the inhibition is inactive: -6.03%. As for `COC(=O)c1sccc1NC(=O)Nc1ccccc1F`, the inhibition is inactive: 1.81%.

Take `O=C(O)COc1ccc2occ(C(=O)c3ccccc3)c2c1`: the inhibition was inactive: -1.86%.

`CN(C)c1ccc(Nc2c3c4c(cccc4n(C)c2=O)C(=O)c2ccccc2-3)cc1`: the inhibition is inactive: 41.7%. As for `CC(C)OC(=O)c1ccc(NC(=O)c2cncc(Br)c2)cc1`, the inhibition is inactive: -4.19%. The result for `O=C(c1ccc(-c2ccccc2)c(F)c1)C1CCCN(C(=O)c2cncs2)C1` (centres undefined) reads inactive: 14.8%; that for `COc1ccc(C(=O)COc2ccc(F)cc2)c(O)c1`, inactive: -7.26%.

For the compound `COc1ccc2c(c1OC)C(=O)N1C2SC[C@H]1C(=O)NC1CC(C)(C)NC(C)(C)C1` (some centres undefined), the inhibition was inactive: -1.05%. As for `O=C(NC1CCCCC1)c1cc2nc(-c3ccco3)cc(C(F)(F)F)n2n1`, the inhibition was inactive: -3.55%. On to `Cc1c(OCC(F)(F)F)ccnc1CS(=O)c1nc2ccccc2[nH]1` (centres undefined), for which the inhibition is inactive: -7.91%. The result for `O=C(/C=C/c1ccc(F)cc1)NC(=S)N1CCCCC1c1cccnc1` (centres undefined) reads inactive: -16.9%; that for `CNC[C@H](O)c1cccc(O)c1`, inactive: 3.45%. As to `COc1ccc2[nH]c(CN3CCN(CC(C)C)C(CCO)C3)c(C)c2c1` (centres undefined), the inhibition is inactive: -9.85%.

As for `Cn1c2ccccc2c2cc(/C=C(\NC(=O)c3ccccc3)C(=O)O)ccc21`, the inhibition is inactive: 0.09%. Next, `COc1ccc(CCNC(=O)C(=O)Nc2ccc3c(c2)OCO3)cc1OC`: inactive: -0.39%; `CCN(CC)CCNC(=O)c1ccc(NC(C)=O)cc1`: inactive: -3.41% and inactive: -1.11%. Next, `CC[C@H]1CN2CCc3cc(OC)c(OC)cc3[C@@H]2C[C@@H]1C[C@H]1NCCc2cc(OC)c(OC)cc21`: inactive: 1.15%; `CCOc1ccc2oc(-c3ccccc3)c(C(=O)O)c2c1`: inactive: -9.42%; `COc1cc(OC)c2c(C)c(Cl)c(=O)oc2c1`: inactive: -3.22%. On to `COc1ccc(NC(=O)CC(c2ccccc2)c2ccco2)cc1` (centres undefined), for which the inhibition was inactive: 13.3%. In the case of `COc1ccc(Br)cc1C(=O)Nc1ccc(C(=O)O)cc1`, the inhibition was inactive: -3.32%.

Turning to `COc1cc([C@@H]2c3cc4c(cc3[C@H](O)[C@H]3COC(=O)[C@H]23)OCO4)cc(OC)c1OC`, the inhibition was inactive: -5.52%. For the compound `CC(C)CC(NC(=O)C(NC(=O)OC(C)(C)C)C(C)C)C(=O)NC(CCC(=O)OCc1ccccc1)C(N)=O` (stereo not drawn) (Boc-Val-Leu-Glu(OBn)-NH2; configuration not given here), the inhibition was inactive: -10.2%.

`COc1ccc(C(=O)Nc2ccccc2C(=O)NCCCn2ccnc2)cc1`: the inhibition is inactive: -9.4%. The result for `O=C(CC1SC(=O)NC1=O)Nc1ccc(Cl)cc1` (centres undefined) reads inactive: -20%. Regarding `COc1ccc(-c2csc(-c3cccnc3)n2)cc1C`, the inhibition is inactive: -2.4%. Turning to `COc1ccc(C2(CCN=Cc3ccc(N(C)C)cc3)CCOC(C)(C)C2)cc1` (centres undefined), the inhibition was inactive: -7.53%. Next, `CCOC(=O)c1cnc2ccccc2c1NCCO`: inactive: -7.16%; `CN=C(NC#N)NCCSCc1nc[nH]c1C`: inactive: -16.7%; `CCC(C)NCCOCCOc1ccc(Cl)c2ccccc12` (centres undefined): inactive: -7.14%. In the case of `O=C(O)CCn1c(=S)n(CCC(=O)O)c2ccccc21`, the inhibition is inactive: 5.57%.

Consider `CC1(CC(=O)Nc2ccccc2)NC(=S)N(c2ccccc2)N1` (centres undefined), for which the inhibition was inactive: -8.06%. Take `CCOC(=O)Nc1ccc2c(c1)N(C(=O)CCN1CCOCC1)c1ccccc1S2`: the inhibition is inactive: -5.86%. Consider `O=C(c1ccc(F)cc1)[C@@H]1[C@@H](C(=O)c2ccccc2)[C@@]2(C(=O)Nc3ccccc32)[C@H]2c3ccccc3C=CN12`, for which the inhibition was inactive: 12.4%.

In the case of `C#C[C@]1(O)CC[C@H]2[C@@H]3CCc4cc(OC)ccc4[C@H]3CC[C@@]21C`, the inhibition was inactive: -4.5%. As to `CC1=C(C)C(=O)C(CCCCC#CCCCC#CCO)=C(C)C1=O`, the inhibition is inactive: 20.1%. With `O=C(O)/C=C/c1cccc(OCc2ccccc2)c1`, the inhibition was inactive: -13.6%. In the case of `CCOCC(=O)Nc1ccccc1C(=O)N1CCOCC1`, the inhibition was inactive: 5.18%.

As to `O=C(CN1C(=O)c2ccccc2S1(=O)=O)Nc1ccccc1`, the inhibition is inactive: -4.41%. In the case of `COc1cc2c(cc1OC)-c1nnc(C)n1C(C)(C)C2`, the inhibition was inactive: -2.21%. Take `CCCCCCC(=O)N(O)C1CC(=O)N(Cc2ccccc2)C1=O` (centres undefined): the inhibition was inactive: 6.53%. With `c1coc(-c2nnc3n2C2(CCCC2)Cc2ccccc2-3)c1`, the inhibition is inactive: -0.37%.

On to `O=C(/C=C/c1ccco1)Nc1ccccc1C(=O)O`, for which the inhibition is inactive: 8.22%.

In the case of `O=C(O)Cc1ccc(O)c(F)c1`, the inhibition is inactive: -5.2%.

For `CC(C)CC(=O)NC(NC(=O)CC(C)C)c1cccc([N+](=O)[O-])c1`, the inhibition is inactive: -6.81%.

`O=C1CC(c2ccc(OCCCCCOc3ccc(C4CC(=O)NC4=O)cc3)cc2)C(=O)N1` (centres undefined): the inhibition was inactive: 12.7%. On to `O=C(c1ccc([N+](=O)[O-])cc1)N1CCSC1c1ccccc1Cl` (centres undefined), for which the inhibition was inactive: -8.21%. Next, `CC1(C)OC2OC(C(=O)N/N=C/c3ccccc3F)C3OC(C)(C)OC3C2O1` (centres undefined): inactive: -9.24%.

Regarding `CN(C)CCCN1c2ccccc2CCc2ccc(Cl)cc21`, the inhibition was inactive: -10.6%. For `COc1ccc2nc(C)cc(Nc3ccccc3O)c2c1`, the inhibition is inactive: 10.9%. The result for `C=CCNc1nc2c(c(=O)n(C)c(=O)n2C)n1CC(=C)C` reads inactive: 2.69%; that for `Clc1ccccc1CN1CCc2sccc2C1`, inactive: -5.49%.

For the compound `O=C(/C=C/c1ccccc1)NC(=O)c1ccccc1O`, the inhibition was inactive: 4.79%.

Take `COc1cc2c(cc1O)CC[C@@H]1[C@@H]2CC[C@]2(C)[C@@H](O)CC[C@@H]12`: the inhibition was inactive: -3.48%.

With `NS(=O)(=O)c1ccc(CCNC(=O)C2CCCN2C(=O)OCc2ccccc2)cc1` (centres undefined), the inhibition was inactive: -15.1%. For the compound `COC(=O)C1=C(C)NC(C)=C(C(=O)OC)C1c1ccccc1[N+](=O)[O-]`, the inhibition result is “active”. With `N/C(=N/OS(=O)(=O)c1ccc([N+](=O)[O-])cc1)c1ccncc1`, the inhibition was inactive: -18.7%. As to `CC1(C(=O)O)CCC(C(=O)NC2CCCCCC2)C1(C)C` (centres undefined), the inhibition was inactive: -4.72%. In the case of `CCNC(=S)N1CCN(CCN2C(=O)c3cccc4cccc(c34)C2=O)CC1`, the inhibition is inactive: 5.17%. Next, `CC(=O)c1cccc(NC(=O)N[C@@H](CC(C)C)C(=O)O)c1`: inactive: -3.15%; `CCc1cc2c3c(c(=O)oc2cc1O)CCCC3`: inactive: 1.98%. The result for `O=c1[nH]cc(F)c(=O)[nH]1` reads inactive: -12.6%.
